# Experimental data taken from patent publication US20230310623.
# Protein sequences, listed by entry. Tags and fused reporters are not part of them. Chains listed by the source or under a name are the forms on record and can include a tag or linker.
# UniProt Q01196, other isoform, or with tags, fused parts or gaps: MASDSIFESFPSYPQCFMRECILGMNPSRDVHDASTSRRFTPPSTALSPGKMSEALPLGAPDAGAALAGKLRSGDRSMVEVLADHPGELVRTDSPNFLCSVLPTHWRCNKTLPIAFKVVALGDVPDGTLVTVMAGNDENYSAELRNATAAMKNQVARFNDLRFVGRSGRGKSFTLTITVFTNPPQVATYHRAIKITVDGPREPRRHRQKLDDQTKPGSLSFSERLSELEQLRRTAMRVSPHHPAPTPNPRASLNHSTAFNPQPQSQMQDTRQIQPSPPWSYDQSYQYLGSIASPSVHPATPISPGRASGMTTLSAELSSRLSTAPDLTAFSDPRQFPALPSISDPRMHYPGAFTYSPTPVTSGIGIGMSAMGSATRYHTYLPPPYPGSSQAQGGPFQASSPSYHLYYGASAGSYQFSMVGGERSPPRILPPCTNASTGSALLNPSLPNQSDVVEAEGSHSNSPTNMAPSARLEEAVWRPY
# Construct, isoform or probe ends are uncertain for at least one entry. At least one result comes from cells or an extract, where the contact may be indirect. The comparison behind a weaker result is the experiment's own reference, which may not be listed here.
# Target: RUNX1 (endogenous) (Homo sapiens) (UniProt Q01196)
# Assay: pull-down
# Details: protein in an extract, label: 5' biotin on forward strand
sequence,measurement,setting,value
AGGGTGTGGCAGGTGTGGACGT (double strand) [URE Runx1 wt oligo],binding result,"nuclear extract, 100 mM KCl, 5 mM MgCl2, 4 C pre-clear, immunoblot",binds
CAGTGCTCTCACAGAGCTAC (double strand) [PrPr Runx1 mt oligo],binding result,"drastic reduction vs wild type, variant of PrPr Runx1 wt oligo",binds more weakly
CAGTGGTGTGGCAGAGCTAC (double strand) [PrPr Runx1 wt oligo],binding result,"nuclear extract, 100 mM KCl, 5 mM MgCl2, immunoblot",binds
AGGCTCTCACAGCTCTCAACGT (double strand) [URE Runx1 mt oligo],binding result,"drastic reduction vs wild type, variant of URE Runx1 wt oligo",binds more weakly
